The source gives many values for each of these; only a part stands here.
Test system: subjects with moderately to severely active RA who have an inadequate response to methotrexate (MTX)
Experiment: Study 1 (add-on to MTX) - Creatinine levels
Type: in vivo, human
Procedure: Double-blind, placebo-controlled add on study in subjects with moderately to severely active RA who have an inadequate response to methotrexate (MTX) (oral or parenteral).
595 subjects randomized to one of 6 dose regimens of Compound 1 (dosed as [Compound 1:HCl:3H2O]) (3 dose levels administered either once or twice daily) or placebo on top of each subject's stable dose of MTX.
Compound 1 (dosed as [Compound 1:HCl:3H2O]) is dosed for twelve weeks once daily (q.d.) (50 mg, 100 mg or 200 mg) or twice daily (b.i.d.) (25 mg, 50 mg or 100 mg); or placebo.
At Week 12, the subjects on placebo who have not achieved 20% improvement in swollen joint count (SJC66) and tender joint count (TJC68) are re-randomized automatically to receive Compound 1 (dosed as a [Compound 1:HCl:3H2O]) either at 100 mg q.d. or 50 mg b.i.d. doses in a blinded fashion; subjects on 50 mg q.d. who have not achieved 20% improvement in SJC66 and TJC68 will be assigned to 100 mg q.d. and subjects on 25 mg b.i.d. that have not achieved a 20% improvement in SJC66 and TJC68 will be assigned to 50 mg b.i.d. Subjects who switch treatment at week 12 are handled as if they discontinued at week 12 for the purpose of statistical analysis, whereas subjects in the other groups will maintain their randomized treatment until Week 24.
Creatinine levels determination is available at Quest Diagnostics, Clinical Trials, Quest House, 125-135 Staines Road, Hounslow, Middlesex, TW3 3JB, United Kingdom under Catalogue n# 82565. For Study 3, the data are obtained at BARC Europe, 3B,Industrie Park, Zwijnaarde, B-9052 Ghent, Belgium.
The Enzymatic method is based on the determination of sarcosine after conversion of creatinine with the aid of creatininase, creatinase, and sarcosine oxidase. The liberated hydrogen peroxide reacts with 4-aminophenazone and HTIB to form a quinone imine chromogen. The reaction is catalyzed by peroxidase. The color intensity is directly proportional to concentration of creatinine present and can be measured photometrically.

[1] = continued 25 mg b.i.d. (N = 69), week 0
[2] = continued 25 mg b.i.d. (N = 69), week 1
[3] = continued 25 mg b.i.d. (N = 69), week 2
[4] = continued 25 mg b.i.d. (N = 69), week 4
[5] = continued 25 mg b.i.d. (N = 69), week 8
[6] = continued 25 mg b.i.d. (N = 69), week 12
[7] = continued 25 mg b.i.d. (N = 69), week 16
[8] = continued 25 mg b.i.d. (N = 69), week 20
[9] = continued 25 mg b.i.d. (N = 69), week 24
[10] = continued 50 mg b.i.d. (N = 85), week 0
[11] = continued 50 mg b.i.d. (N = 85), week 1
[12] = continued 50 mg b.i.d. (N = 85), week 2
[13] = continued 50 mg b.i.d. (N = 85), week 4
[14] = continued 50 mg b.i.d. (N = 85), week 8
[15] = continued 50 mg b.i.d. (N = 85), week 12
[16] = continued 50 mg b.i.d. (N = 85), week 16
[17] = continued 50 mg b.i.d. (N = 85), week 20
[18] = continued 50 mg b.i.d. (N = 85), week 24
[19] = continued 50 mg q.d. (N = 63), week 4
[20] = continued 50 mg q.d. (N = 63), week 8
[21] = continued 50 mg q.d. (N = 63), week 12
[22] = continued 50 mg q.d. (N = 63), week 16
[23] = continued 50 mg q.d. (N = 63), week 20
[24] = continued 100 mg b.i.d. (N = 84), week 0
[25] = continued 100 mg b.i.d. (N = 84), week 1
[26] = continued 100 mg b.i.d. (N = 84), week 2
[27] = continued 100 mg b.i.d. (N = 84), week 4
[28] = continued 100 mg b.i.d. (N = 84), week 8
[29] = continued 100 mg b.i.d. (N = 84), week 12
[30] = continued 100 mg b.i.d. (N = 84), week 16
[31] = continued 100 mg b.i.d. (N = 84), week 20
[32] = continued 100 mg b.i.d. (N = 84), week 24
[33] = continued 100 mg q.d. (N = 85), week 0
[34] = continued 100 mg q.d. (N = 85), week 1
[35] = continued 100 mg q.d. (N = 85), week 2

## O=C(Nc1nc2cccc(-c3ccc(CN4CCS(=O)(=O)CC4)cc3)n2n1)C1CC1 [Compound 1, cyclopropanecarboxylic acid {5-[4-(1,1-dioxo-thiomorpholin-4-ylmethyl)-phenyl]-[1,2,4]triazolo[1,5-a]pyridin-2-yl}-amide]
[1]
  Creatinine Mean CFB: 0.0 µmol/L
  Creatinine Mean percentage CFB: 0.0%
[2]
  Creatinine Mean CFB: 1.2 µmol/L
  Creatinine Mean percentage CFB: 2.5%
[3]
  Creatinine Mean CFB: 1.3 µmol/L
  Creatinine Mean percentage CFB: 2.9%
[4]
  Creatinine Mean CFB: 0.7 µmol/L
  Creatinine Mean percentage CFB: 2.1%
[5]
  Creatinine Mean CFB: 1.5 µmol/L
  Creatinine Mean percentage CFB: 3.3%
[6]
  Creatinine Mean CFB: 1.3 µmol/L
  Creatinine Mean percentage CFB: 3.6%
[7]
  Creatinine Mean CFB: 1.8 µmol/L
  Creatinine Mean percentage CFB: 4.3%
[8]
  Creatinine Mean CFB: 1.7 µmol/L
  Creatinine Mean percentage CFB: 4.3%
[9]
  Creatinine Mean CFB: 0.5 µmol/L
  Creatinine Mean percentage CFB: 2.0%
[10]
  Creatinine Mean CFB: 0.0 µmol/L
  Creatinine Mean percentage CFB: 0.0%
[11]
  Creatinine Mean CFB: 2.9 µmol/L
  Creatinine Mean percentage CFB: 5.5%
[12]
  Creatinine Mean CFB: 3.6 µmol/L
  Creatinine Mean percentage CFB: 6.0%
[13]
  Creatinine Mean CFB: 2.9 µmol/L
  Creatinine Mean percentage CFB: 5.4%
[14]
  Creatinine Mean CFB: 3.5 µmol/L
  Creatinine Mean percentage CFB: 6.4%
[15]
  Creatinine Mean CFB: 3.8 µmol/L
  Creatinine Mean percentage CFB: 6.6%
[16]
  Creatinine Mean CFB: 4.7 µmol/L
  Creatinine Mean percentage CFB: 8.2%
[17]
  Creatinine Mean CFB: 5.7 µmol/L
  Creatinine Mean percentage CFB: 9.6%
[18]
  Creatinine Mean CFB: 2.8 µmol/L
  Creatinine Mean percentage CFB: 5.5%
[19]
  Creatinine Mean CFB: 1.1 µmol/L
  Creatinine Mean percentage CFB: 2.8%
[20]
  Creatinine Mean CFB: 2.0 µmol/L
  Creatinine Mean percentage CFB: 4.4%
[21]
  Creatinine Mean CFB: 1.9 µmol/L
  Creatinine Mean percentage CFB: 3.7%
[22]
  Creatinine Mean CFB: 2.6 µmol/L
  Creatinine Mean percentage CFB: 5.1%
[23]
  Creatinine Mean CFB: 2.9 µmol/L
  Creatinine Mean percentage CFB: 5.7%
[24]
  Creatinine Mean CFB: 0.0 µmol/L
  Creatinine Mean percentage CFB: 0.0%
[25]
  Creatinine Mean CFB: 4.6 µmol/L
  Creatinine Mean percentage CFB: 8.2%
[26]
  Creatinine Mean CFB: 4.1 µmol/L
  Creatinine Mean percentage CFB: 7.9%
[27]
  Creatinine Mean CFB: 4.3 µmol/L
  Creatinine Mean percentage CFB: 8.3%
[28]
  Creatinine Mean CFB: 6.6 µmol/L
  Creatinine Mean percentage CFB: 12.1%
[29]
  Creatinine Mean CFB: 6.3 µmol/L
  Creatinine Mean percentage CFB: 11.6%
[30]
  Creatinine Mean CFB: 6.5 µmol/L
  Creatinine Mean percentage CFB: 12.1%
[31]
  Creatinine Mean CFB: 7.0 µmol/L
  Creatinine Mean percentage CFB: 12.7%
[32]
  Creatinine Mean CFB: 6.1 µmol/L
  Creatinine Mean percentage CFB: 11.5%
[33]
  Creatinine Mean CFB: 0.0 µmol/L
  Creatinine Mean percentage CFB: 0.0%
[34]
  Creatinine Mean CFB: 2.3 µmol/L
  Creatinine Mean percentage CFB: 4.2%
[35]
  Creatinine Mean CFB: 2.5 µmol/L
  Creatinine Mean percentage CFB: 4.9%
Continued 100 mg q.d. (N = 85), week 4
  Creatinine Mean CFB: 2.0 µmol/L

Reference: US20180200257A1, “METHODS FOR THE TREATMENT OF INFLAMMATORY DISORDERS” (Galapagos NV, priority 2015, published 2018)
